# Values from PubChem BioAssay AID1224829 (NIAID, 2016)
# Purpose: 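Secondary check of hits that alter LPS-induced p65 translocation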 (follow-up of hits)
# Cell system: mouse RAW264.7 G9 macrophage reporter cells
# Knock-down reagent: single siRNA against mouse genes, 100 nM
# Time to read-out: 2 days of siRNA knock-down, then 40 min of LPS before fixing
# Treatment: LPS (Salmonella minnesota R595) at 10 ng/ml
# Measured: 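Imaging of GFP-p65 after 40 min of LPS; nuclear over perinuclear ring intensity ratio, scaled to plate median and non-targeting control wells, given as z-score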
# Scale: p65 translocation z-score: higher = more nuclear NF-kappaB p65 after LPS
# Rule for the call: 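Active means the replicate-mean z-score lies beyond plus or minus 2, in either direction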
# Calls: active = changed p65 translocation (either direction); inactive = no clear change
# This is an unselected part of about 3,800 reagents. 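Calls cover raised and lowered translocation; gene median uses one vendor's three siRNAs; qiagen siRNAs acted more weakly than ambion siRNAs.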 Entries without a mark were called inactive. Reagents against one gene are numbered here. Further read-outs or replicates are left out here.
Target gene,reagent,siRNA vendor or control pool,"p65 translocation z-score, replicate mean"
Clta (GeneID 12757),1,ambion single siRNA,-0.463
Clta (GeneID 12757),2,ambion single siRNA,-3.7 (active)
Clta (GeneID 12757),3,ambion single siRNA,-1.8
Clta (GeneID 12757),4,qiagen single siRNA,2.22 (active)
Clta (GeneID 12757),5,qiagen single siRNA,0.889
Clta (GeneID 12757),6,qiagen single siRNA,-0.661
Dsg1a (GeneID 13510),1,ambion single siRNA,0.88
Dsg1a (GeneID 13510),2,ambion single siRNA,-0.491
Dsg1a (GeneID 13510),3,ambion single siRNA,-0.713
Dsg1a (GeneID 13510),4,qiagen single siRNA,2.72 (active)
Dsg1a (GeneID 13510),5,qiagen single siRNA,0.325
Dsg1a (GeneID 13510),6,qiagen single siRNA,0.834
Ssh3 (GeneID 245857),1,ambion single siRNA,1.09
Ssh3 (GeneID 245857),2,ambion single siRNA,-1.62
Ssh3 (GeneID 245857),3,ambion single siRNA,-2.62 (active)
Ssh3 (GeneID 245857),4,qiagen single siRNA,-1.81
Ssh3 (GeneID 245857),5,qiagen single siRNA,-1.01
Ssh3 (GeneID 245857),6,qiagen single siRNA,-4.51 (active)
Hspa12a (GeneID 73442),1,ambion single siRNA,-1.58
Hspa12a (GeneID 73442),2,ambion single siRNA,-1.51
Hspa12a (GeneID 73442),3,ambion single siRNA,-5.25 (active)
Hspa12a (GeneID 73442),4,qiagen single siRNA,-0.396
Hspa12a (GeneID 73442),5,qiagen single siRNA,3.12 (active)
Hspa12a (GeneID 73442),6,qiagen single siRNA,-5.09 (active)
Dynlrb2 (GeneID 75465),1,ambion single siRNA,-1
Dynlrb2 (GeneID 75465),2,ambion single siRNA,-4.15 (active)
Dynlrb2 (GeneID 75465),3,ambion single siRNA,-3.07 (active)
Dynlrb2 (GeneID 75465),4,qiagen single siRNA,1.34
Dynlrb2 (GeneID 75465),5,qiagen single siRNA,-0.047
Dynlrb2 (GeneID 75465),6,qiagen single siRNA,-2.63 (active)
Gnpnat1 (GeneID 54342),1,ambion single siRNA,-1.74
Gnpnat1 (GeneID 54342),2,ambion single siRNA,-2.93 (active)
Gnpnat1 (GeneID 54342),3,ambion single siRNA,-4.51 (active)
Gnpnat1 (GeneID 54342),4,qiagen single siRNA,-1.32
Gnpnat1 (GeneID 54342),5,qiagen single siRNA,-0.772
Gnpnat1 (GeneID 54342),6,qiagen single siRNA,-3.98 (active)

Ordered by “p65 translocation z-score, replicate mean” (ascending): some entries from above
Target gene,reagent,siRNA vendor or control pool,"p65 translocation z-score, replicate mean"
Ssh3 (GeneID 245857),6,qiagen single siRNA,-4.51 (active)
Hspa12a (GeneID 73442),1,ambion single siRNA,-1.58
